At least one compound was matched to its structure with a doubt left.
Assays:
[1] = test system: fatty acid-binding protein FABP1; assay: Effect of PPZ on mRNA and protein expression of fatty acid-binding protein FABP1 in human liver cells (RT-PCR, Western Blot); assay type: cell-based; conditions: LO2, QSG-7701 and Huh7 cells, 20-320 uM PPZ for 24 h, vs control (saline), n=8
[2] = test system: mice with fatty liver disease caused by a high-fat diet; assay: Effect of PPZ on fatty liver disease and fat deposition in liver caused by a high-fat diet in mice; assay type: in vivo, C57BL6 mice; conditions: 1, 2, 5, 10 mg/kg intraperitoneally every 12 hours, 10 weeks, vs control group

COc1ccnc(C[S+]([O-])c2nc3ccc(OC(F)F)cc3[nH]2)c1OC (stereo not drawn) [PPZ, pantoprazole]
mRNA expression of fatty acid-binding protein FABP1 ([1]; PCR): inhibited the mRNA and protein expression of fatty acid-binding protein FABP1 in human liver cells in a dosage-dependent manner
protein expression of fatty acid-binding protein FABP1 ([1]; Western Blot): inhibited the mRNA and protein expression of fatty acid-binding protein FABP1 in human liver cells in a dosage-dependent manner
content of triglyceride in liver tissue ([2]; biochemical method, expressed as mg/g of liver, dosage-dependence): significantly-reduced content of triglyceride in liver tissue
fat deposition in liver (Oil Red O staining) ([2]; dosage-dependence): significantly-alleviated fat deposition in liver
hepatic steatosis (liver histology HE staining) ([2]; dosage-dependence): significantly-alleviated hepatic steatosis
liver weight ([2]; no dosage-dependence, P<0.05): significantly-reduced liver weight
